{
  "sequences": {"note": "Amino acid sequences for entries named in this document (tags omitted).", "UniProt Q22799": "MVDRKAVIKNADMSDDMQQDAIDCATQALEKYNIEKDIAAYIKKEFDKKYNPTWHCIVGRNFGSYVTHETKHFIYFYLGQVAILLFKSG"},
  "source": "paper PMC6160458",
  "target": "DLC-1::GFP (dynein light chain 1 fused to GFP) (C. elegans) (UniProt Q22799)",
  "assay": "co-IP; DLC-1::GFP precipitated with GFP-trap; blot probed with an antibody against CED-4, pull-down of DLC-1::GFP verified with an antibody against GFP",
  "note": "These are yes or no findings as the source states them, for the method shown. Binding seen in cells or lysates may run through a third protein.",
  "data": [
    {"binder": "CED-4 (Apaf1) (protein, UniProt P30429 1-549) MLCEIECRALSTAHTRLIHDFEPRDALTYLEGKNIFTEDHSELISKMSTRLERIANFLRIYRRQASELGPLIDFFNYNNQSHLADFLEDYIDFAINEPDLLRPVVIAPQFSRQMLDRKLLLGNVPKQMTCYIREYHVDRVIKKLDEMCDLDSFFLFLHGRAGSGKSVIASQALSKSDQLIGINYDSIVWLKDSGTAPKSTFDLFTDILLMLKSEDDLLNFPSVEHVTSVVLKRMICNALIDRPNTLFVFDDVVQEETIRWAQELRLRCLVTTRDVEISNAASQTCEFIEVTSLEIDECYDFLEAYGMPMPVGEKEEDVLNKTIELSSGNPATLMMFFKSCEPKTFEKMAQLNNKLESRGLVGVECITPYSYKSLAMALQRCVEVLSDEDRSALAFAVVMPPGVDIPVKLWSCVIPVDICSNEEEQLDDEVADRLKRLSKRGALLSGKRMPVLTFKIDHIIHMFLKHVVDAQTIANGISILEQRLLEIGNNNVSVPERHIPSHFQKFRRSSASEMYPKTTEETVIRPEDFPKFMQLHQKFYDSLKNFACC", "values": [
      {"measurement": "binding", "result": "no binding"}
    ]}
  ]
}
